Assay: general procedure: solution-phase peptide synthesis; EDAC.HCl/HOBT
Conditions: cyclisation step

Eptifibatide
crude HPLC purity: 90%
